B1: il2ra_site1_1z92_normal_mot_HHH_b2_04040_af2_000000124_0001_19_35_H_._HHH_b1_02397_0001_0000300010_0000001_0_af2pred_0001_af2pred_1 (protein)
chain: SSSSSIEEFLEKQLERKAKLGNERAFERLLKDAERALKLAGDEEALEKLEEFARRLEEEMKSSSS
B2: il2ra_site1_2b5i_normal_mot_HHH_b1_06428_000000224_0001_1_17_H_._HHH_b1_06787_0001_0000300016_0000001_0 (protein)
chain: SSSSSEAKEILHLAEEALKRGDEEELEELLEELEELIKESPNPQRRKLLEAVFRTVEEALSSSSS
B3: il2ra_site2_2erj_normal_mot_HHH_b2_00484_af2_000000139_0001_42_55_H_._HHH_b1_02313_0001_0000800029_0000001_0 (protein)
chain: SSSSSSEEEEELAIRIHELFRKARSEEELEEIFEELRRKIEELNSEVLRRYLEHAHKHARSSSSS
B4: il2ra_site1_2b5i_sap_11_mot_HHH_b1_08678_af2_000000008_0001_41_54_H_._HHH_b2_08195_af2_0001_0000100007_0000001_0_0001 (protein)
chain: SSSSELHRFAAELVDKLAEKLGLDDEQFSELTREAVRLIWRGVSEEEIEELVQRLAEELRGSSSS
B5: il2ra_site1_1z92_sap_29_mot_HHH_b1_02756_000000071_0001_20_37_H_._HHH_b1_00020_0001_0000200011_0000001_0_0001_af2pred_0001_af2pred (protein)
chain: TTTEELLREAVEKNDEEELRKFIELLLRDAGDPELVRQLLKILVKRLGLPPEVLERLEELLEELT
B6: il2ra_site1_1z92_normal_mot_934a834d9b8b770824478def2ff2f329_0001_af2_000000088_0001_15_30_H_._HHH_b2_05182_af2_0001_0000400021_0000001_0_af2pred_0001_af2pred_1 … (protein)
chain: SSSSDEEEELVREIVEEYGGDEAVERDAQRFAEFLAEKGVSEEAIERNLRRIVEHAARRENSSSS
B7: il2ra_site2_3nfp_normal_mot_HHH_b1_01086_000000225_0001_20_36_H_._HHH_b2_07947_0001_0000100002_0000001_0_af2pred_0001_1_af2pred_swapped (protein)
chain: SSSSSSDEEEEVEELLEEAKHIDDPHERFAALALAAELAFRARNPELVRLVRELAAKLSSSSSSS
B8: il2ra_site2_2erj_normal_mot_HHH_b1_03609_af2_000000077_0001_42_55_H_._HHH_b1_04957_af2_0001_0000800018_0000001_0 (protein)
chain: SSSSSDEELEKLIEEAEELLKQGNEEEAWKVLRRAAALAFELNDFELWSKIAELLREIGSSSSSS
B9: il2ra_site1_1z92_sap_19_mot_HHH_b1_00697_000000055_0001_1_18_H_._HHH_b1_05485_0001_0000400015_0000001_0_0001_af2pred_0001_af2pred (protein)
chain: GERHVEIAERFAGGDPEKFVRLVLRLLEAAGDLSPEELEKLREELEELLKRDPEKAKELAKEALT
B10: il2ra_site1_1z92_sap_21_mot_HHH_b1_07866_af2_000000238_0001_1_18_H_._HHH_b2_03299_af2_0001_0000100001_0000001_0_0001_af2pred_0001_af2pred (protein)
chain: SSSSSSSEVEEKAEELLKELREEGDEREVRLLEFLLRQVRQFGSPRAKELLEEALEALSSSSSSS
B11: il2ra_site2_2erj_normal_mot_9f5b7fc4e9d6b3037bff8dd1fb84ce76_0001_000000082_0001_16_32_H_._8cccc599a7bb59b440cc763c2d19aad1_0001_af2_0001_0000700015_0000001_0 (protein)
chain: DESLKALVEFVLRGEIPPELAARYLELSAEDSNDPRIRELLELVELLKKGDPEAEELLEEFLEKT
B12: il2ra_site2_3nfp_normal_mot_HHH_b1_05785_af2_000000002_0001_41_57_H_._HHH_b2_02344_0001_0000900037_0000001_0 (protein)
chain: SSSSSEERLLEAALRSLEALQRQGDEEMVELTAEYAKAAAALLNDEETLEEIEQLLREYNSSSSS
B13: il2ra_site1_1z92_normal_mot_HHH_b2_08033_af2_000000151_0001_1_18_H_._HHH_b1_08599_af2_0001_0000100004_0000001_0 (protein)
chain: SSSSDEDEEIQELYKQATELLRNGDPEEAEEVLKRAEELAEELGDETLARDLREMLRFIKSSSSS
B14: il2ra_site2_2erj_normal_mot_HHH_b1_07584_000000201_0001_42_55_H_._HHH_b1_04993_af2_0001_0000500021_0000001_0 (protein)
chain: SSSSSSDEVEELAAEAVEAAHNGNPEEARKILEQAEELAKELNNETLERYVELALRHLSSSSSSS
B15: il2ra_site1_2b5i_normal_mot_HHH_b2_04910_000000118_0001_1_19_H_._HHH_b2_07216_0001_0000100001_0000001_1 (protein)
chain: SSSSSEETREARELFHEADELDKEGDPEEAERTLEEALEIARQGGSRQLARMIESALRQLESSSS
B16: il2ra_site1_3nfp_sap_26_mot_HHH_b1_05490_000000239_0001_1_19_H_._HHH_b2_01214_af2_0001_0000100005_0000001_0_0001_af2pred_0001_af2pred (protein)
chain: TTEELLKRLVKNAVESNNPRQLRRILRDLERYLGDPEEAERVLEELIEEVLGDPEEAEKLVEKAK
B17: il2ra_site2_3nfp_sap_16_mot_HHH_b2_08046_000000127_0001_20_37_H_._8323a3979fe47b92d96c7c6278d960ae_0001_0001_0000100012_0000001_0_0001_af2pred_0001_af2pred_1 (protein)
chain: SSSSDEAERLVERAEELLEEGDLEEAERILKEARKQAAEKGDFELFARILELLELLERLGSSSSS
B18: il2ra_site1_2b5i_sap_12_mot_HHH_b1_04915_000000205_0001_19_36_H_._HHH_b2_03210_af2_0001_0000200012_0000001_1_0001 (protein)
chain: SSSSDLLERVQELFAEASRLFLKGNPEEARKVLEEAHELAEEAGDEKTREDIERMLERINSSSSS

The other results are listed elsewhere or left out.

The target in this assay is il2ra, P01589. Nature of the assay: yeast display titration.
B1: the “apparent Kd” value is “inactive: no binding seen”.

For the molecule B2, the “apparent Kd” value is “inactive: no binding seen”.

Turning to B3, the “apparent Kd” value is “inactive: no binding seen”.

As for B4, the apparent Kd is inactive: > 2.63 nM.

For B5, the “apparent Kd” value is “inactive: no binding seen”.

For B6, the “apparent Kd” value was “inactive: no binding seen”.

With B7, the “apparent Kd” value was “inactive: no binding seen”.

On to B8, for which the “apparent Kd” value is “inactive: no binding seen”.

Regarding B9, the “apparent Kd” value was “inactive: no binding seen”.

With B10, the “apparent Kd” value is “inactive: no binding seen”.

For B11, the “apparent Kd” value is “inactive: no binding seen”.

Regarding B12, the “apparent Kd” value is “inactive: no binding seen”.

Consider B13, for which the “apparent Kd” value was “inactive: no binding seen”.

Regarding B14, the “apparent Kd” value was “inactive: no binding seen”.

With B15, the “apparent Kd” value was “inactive: no binding seen”.

With B16, the “apparent Kd” value is “inactive: no binding seen”.

In the case of B17, the “apparent Kd” value was “inactive: no binding seen”.

B18: the “apparent Kd” value was “inactive: no binding seen”.

These data come from paper PMC10163288.
